Results are given in words; binding and its absence hold for the method and conditions named. A result given as binding can be weak or reduced; the word gives no strength.
Target: T1, full-length recombinant mouse EPPIN (mEPPIN; L24-T134) (mouse) (UniProt Q9DA01)
T1 sequence: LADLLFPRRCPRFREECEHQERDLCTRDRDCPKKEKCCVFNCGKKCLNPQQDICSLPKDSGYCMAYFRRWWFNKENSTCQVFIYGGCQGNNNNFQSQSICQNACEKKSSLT
Assay: AlphaScreen or HTRF

binding: binds
Substance: full-length recombinant mouse SEMG1 (mSEMG1; Q32-G375)
